Some entries share one result that the patent states for a list of compounds.
Tested on: hexobarbital-induced sleep
Test: Potentiating effect on hexobarbital-induced sleep in mice
Format: in vivo
Settings: 50 mg/kg (p.o.)
Source text: Besides, the conventional antihistaminics have side-effect such as hypnotic activity.

SMILES | potentiating effect on hexobarbital-induced sleep
CCOCCn1c(CN2CCN(CC)CC2)nc2ccccc21 [Example 5, 1-(2-ethoxyethyl)-2-(4-ethyl-1-piperazinyl)methylbenzimidazole] | did not show such potentiating effect
CCOCCn1c(CN2CCN(C)CC2)nc2ccccc21 [Example 3, 1-(2-ethoxyethyl)-2-(4-methyl-1-piperazinyl)methylbenzimidazole] | did not show such potentiating effect
CCCOCCn1c(CN2CCN(C)CC2)nc2ccccc21 [Example 8, 1-(2-n-propoxyethyl)-2-(4-methyl-1-piperazinyl)methylbenzimidazole] | did not show such potentiating effect
C#CCOCCn1c(CN2CCCN(C)CC2)nc2ccccc21 [Example 12, 1-(2-propargyloxyethyl)-2-(4-methyl-1-homopiperazinyl)methylbenzimidazole] | did not show such potentiating effect
CCOCCn1c(CN2CCCNCC2)nc2ccccc21 [Example 2, 1-(2-ethoxyethyl)-2-(1-homopiperazinyl)methylbenzimidazole] | did not show such potentiating effect
CCOCCn1c(CN2CCCN(C)CC2)nc2ccccc21 [Example 4, 1-(2-ethoxyethyl)-2-(4-methyl-1-homopiperazinyl)methylbenzimidazole] | did not show such potentiating effect
CCOCCn1c(CN2CCN(CCO)CC2)nc2ccccc21 [Example 7, 1-(2-ethoxyethyl)-2-[4-(2-hydroxyethyl)-1-piperazinyl]methylbenzimidazole] | did not show such potentiating effect
C=COCCn1c(CN2CCN(C)CC2)nc2ccccc21 [Example 9, 1-(2-vinyloxyethyl)-2-(4-methyl-1-piperazinyl)methylbenzimidazole] | did not show such potentiating effect
CCOCCn1c(CN2CCNCC2)nc2ccccc21 [Example 1, 1-(2-ethoxyethyl)-2-(1-piperazinyl)methylbenzimidazole] | did not show such potentiating effect
CCCN1CCN(Cc2nc3ccccc3n2CCOCC)CC1 [Example 6, 1-(2-ethoxyethyl)-2-(4-n-propyl-1-piperazinyl)methylbenzimidazole] | did not show such potentiating effect

— patent US4603130A, “1-substituted-2-(piperazinyl or homopiperazinyl)-benzimidazole compounds and pharmaceutical composition” (Kanebo, Ltd., priority 1983, dated 1986)
